PubChem BioAssay AID2417 (National Center for Advancing Translational Sciences (NCATS), 2010)
The campaign covered roughly 140,000 compounds. About 4,300 (3.1%) were called active. Inconclusive means that the source gave no clear call. Such entries were picked first, then a sample of the others.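 Rule for the calls: active = readout at or below -70, meaning at least 70% loss of cells showing the perinucleolar compartment, a nuclear body marking cancer cells; inconclusive = readout between -30 and a set limit; inactive = the rest.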

Assay: High Content Assay for Compounds that inhibit the Assembly of the Perinucleolar Compartment;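 note: plate controls were DMSO wells for no effect and camptothecin positive control wells for full effect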
Conditions: PC3M PTB-GFP, PNC prevalence imaging, 16 h; at 10 µM; hits give low values
In short: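 PC3M cells stably expressing PTB-GFP, 750–1000 cells/well, treated 16 h at 37 °C with compound (23 nl of library stock), in duplicate. After paraformaldehyde fixation and Hoechst stain, imaged at 20x; PNC prevalence scored by image analysis.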

Structure (SMILES)	activity change (PNC), negative = inhibition
COc1ccc(CN(C)c2ncnc(N)n2)cc1	inactive: 1.94%
Cc1cc(-c2n[nH]c(=S)n2/N=C/c2ccc(C)s2)n[nH]1	inactive: 18.3%
Cc1ccc(S(=O)(=O)Nc2ccc(S(=O)(=O)Nc3ncccn3)cc2)cc1	inconclusive: -30.7%
CCOC(=O)c1ccc(N2C(=O)CC(NC3CCN(C(=O)c4ccc(F)cc4)CC3)C2=O)cc1 (centres undefined)	inactive: -0.555%
Cc1ccccc1-n1c(Cn2c(=O)sc3ccccc32)nnc1SC(C)C	inconclusive: -38.7%
COc1ccccc1/C=C/C=C1\Oc2c(ccc(O)c2CN2CCN(CCO)CC2)C1=O	inactive: -28.3%
CCCC(C(=O)O)N1C(=O)/C(=C2\C(=O)N(C)c3ccccc32)SC1=S (centres undefined)	inactive: 7%
Cc1cc(C(=O)N/N=C\c2ccc(COc3ccc([N+](=O)[O-])cc3)o2)ccc1[N+](=O)[O-]	inconclusive: -39.7%
Cc1c(Cl)cccc1NC(=O)C1NC(=O)CC1c1ccccc1 (centres undefined)	inactive: -7.31%
CCc1nnc(NC(=O)c2cc(-c3ccccc3)nn2-c2ccccc2)s1	inconclusive: -39.3%
CC(OC(=O)C1=Cc2ccccc2OC1)C(=O)NC1CCCC1 (centres undefined)	active: -90.4%
Cc1nccn1-c1c2c(c(C#N)c3nc4ccccc4n13)CCC2	inconclusive: -42.5%
O=C(CSc1nnc2n(C3CCCC3)c(=O)c3ccccc3n12)N1CCCCCC1	inactive: -15.4%
CC(=O)c1nc(N2C(=O)CC(Cc3cc(C)cc(C)c3)C2=O)sc1C (centres undefined)	inconclusive: -37.1%
CCOC(=O)COc1cccc2c(=O)n(CC(=O)N3CCN(C(=O)OCC)CC3)ccc12	inconclusive: -67.2%
COc1cc(C2=NOC(C(=O)NCc3cccs3)C2)cc(OC)c1OC (centres undefined)	active: -104%
O=c1cc(N2CCOCC2)cnn1-c1ccccc1	inconclusive: -43.2%
O=C(CN(c1ccc(Cl)c(C(F)(F)F)c1)S(=O)(=O)c1ccccc1)N/N=C/c1cccc2c1OCCO2	inconclusive: -71.6%
CCOc1cccc(CN2CCN(c3cccc(C(F)(F)F)c3)CC2)c1O	inactive: 42.4%
O=C(c1cc2cc(Cl)cc(Cl)c2oc1=O)N1CCOCC1	inconclusive: -55.1%
Cc1ccc(C(=O)Nc2ncc(Cc3ccc(SC(F)F)cc3)s2)cc1	active: -82.4%
O=C(CCCC(=O)N(CC(=O)NC1CCCC1)Cc1ccc2c(c1)OCO2)Nc1ccccn1	inconclusive: -35.5%
COc1ccc(/C=C(\NC(=O)c2ccccc2)C(=O)N/N=C/c2sccc2C)cc1	inconclusive: -34.3%
CCOC(=O)c1c(NC(=O)CN2CCOCC2)sc2c1CC(C)(C)OC2	inconclusive: -34.9%

Molecules from the list above that have fluorine:
Structure (SMILES)	activity change (PNC), negative = inhibition
CCOC(=O)c1ccc(N2C(=O)CC(NC3CCN(C(=O)c4ccc(F)cc4)CC3)C2=O)cc1 (centres undefined)	inactive: -0.555%
O=C(CN(c1ccc(Cl)c(C(F)(F)F)c1)S(=O)(=O)c1ccccc1)N/N=C/c1cccc2c1OCCO2	inconclusive: -71.6%
CCOc1cccc(CN2CCN(c3cccc(C(F)(F)F)c3)CC2)c1O	inactive: 42.4%
Cc1ccc(C(=O)Nc2ncc(Cc3ccc(SC(F)F)cc3)s2)cc1	active: -82.4%
